# Values from PubChem BioAssay AID1259269 (Sanger Institute, 2017).
# Screen: 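Retest knock-downs that hurt colorectal cancer cells more once an anchor drug is added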 (follow-up of hits)
# System: HCC2998 human colorectal cancer cells
# Reagent: single siRNA against human genes
# Challenge: anchor drug BYL719 1 µM, cetuximab 5 µg/ml or trametinib 10 nM; DMSO vehicle as comparison arm
# Read-out: 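Replicate-averaged survival relative to non-targeting control siRNA with DMSO or drug (BYL719 1 µM, cetuximab 5 µg/ml, trametinib 10 nM); per-drug synergy score, higher for stronger synthetic lethality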
# Direction: synergy score with BYL719 and synergy score with cetuximab and synergy score with trametinib: higher = stronger synthetic lethal effect with the drug; viability with DMSO: higher = more cells survive the knock-down; viability with trametinib: higher = more cells survive knock-down plus drug
# Rule for the call: 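Active if the synergy score exceeds 0.10 for at least one of BYL719, cetuximab or trametinib; otherwise inactive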
# Meaning of the calls: active = synergy with at least one drug; inactive = no synergy with any drug
# In all, the deposit lists 160 reagents; this is a random part of them. 108 of them (68%) count as active. 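Viability cannot exceed 1; how synergy scores were computed is not described.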 The numbers tell different reagents against one gene apart. Viability is capped at 1. No sequences are given here. The record does not give: the amount of reagent, the time to read-out.
gene knocked down,siRNA no.,synergy score with BYL719,synergy score with cetuximab,synergy score with trametinib,viability with DMSO (fraction of control),viability with trametinib (fraction of control),activity call
HSPB8 (heat shock protein family B (small) member 8),1,-0.343,-0.0541,0.189,0.709,0.209,active
HSPB8 (heat shock protein family B (small) member 8),2,-0.116,0.32,-0.0941,1,0.656,active
HSPB8 (heat shock protein family B (small) member 8),3,-0.116,0.135,0.237,1,0.324,active
HSPB8 (heat shock protein family B (small) member 8),4,0.159,0.309,0.232,0.754,0.192,active
HUNK (hormonally up-regulated Neu-associated kinase),1,0.0241,0.119,0.0974,0.432,0.145,active
HUNK (hormonally up-regulated Neu-associated kinase),2,0.1,-0.2,0.112,0.326,0.0708,active
HUNK (hormonally up-regulated Neu-associated kinase),3,-0.0703,0.212,0.0371,0.441,0.21,active
HUNK (hormonally up-regulated Neu-associated kinase),4,0.0947,0.344,0.278,0.792,0.166,active
CDKN2D (cyclin dependent kinase inhibitor 2D),1,-0.418,0.00324,0.25,0.598,0.0853,active
CDKN2D (cyclin dependent kinase inhibitor 2D),2,-0.222,0.0178,0.25,0.673,0.127,active
CDKN2D (cyclin dependent kinase inhibitor 2D),3,-0.116,0,0.232,1,0.329,active
CDKN2D (cyclin dependent kinase inhibitor 2D),4,0.06,0.289,0.187,0.572,0.133,active
BMPR2 (bone morphogenetic protein receptor type 2),1,0.0954,0,0.346,1,0.215,active
BMPR2 (bone morphogenetic protein receptor type 2),2,-0.0885,-0.129,0.216,0.633,0.139,active
BMPR2 (bone morphogenetic protein receptor type 2),3,0.0977,0.172,0.271,0.857,0.211,active
BMPR2 (bone morphogenetic protein receptor type 2),4,0.195,0,0.155,1,0.406,active
"GUCY2D (guanylate cyclase 2D, retinal)",1,0.00337,0,0.312,1,0.25,active
"GUCY2D (guanylate cyclase 2D, retinal)",2,-0.147,-0.219,0.202,0.481,0.0684,active
"GUCY2D (guanylate cyclase 2D, retinal)",3,-0.00303,0.0346,0.0186,0.62,0.33,inactive
"GUCY2D (guanylate cyclase 2D, retinal)",4,0.198,0.193,0.147,0.94,0.381,active
IKBKB (inhibitor of nuclear factor kappa B kinase subunit beta),1,-0.0659,-0.00298,0.123,0.432,0.12,active
IKBKB (inhibitor of nuclear factor kappa B kinase subunit beta),2,-0.0243,0.368,0.191,0.763,0.237,active
IKBKB (inhibitor of nuclear factor kappa B kinase subunit beta),3,-0.199,0.0252,0.137,0.881,0.358,active
IKBKB (inhibitor of nuclear factor kappa B kinase subunit beta),4,-0.473,-0.244,-0.0454,0.391,0.265,inactive

Copied from the listing for reference:
gene knocked down,siRNA no.,synergy score with BYL719,synergy score with cetuximab,synergy score with trametinib,viability with DMSO (fraction of control),viability with trametinib (fraction of control),activity call
BMPR2 (bone morphogenetic protein receptor type 2),2,-0.0885,-0.129,0.216,0.633,0.139,active
BMPR2 (bone morphogenetic protein receptor type 2),3,0.0977,0.172,0.271,0.857,0.211,active
BMPR2 (bone morphogenetic protein receptor type 2),4,0.195,0,0.155,1,0.406,active
"GUCY2D (guanylate cyclase 2D, retinal)",1,0.00337,0,0.312,1,0.25,active
"GUCY2D (guanylate cyclase 2D, retinal)",2,-0.147,-0.219,0.202,0.481,0.0684,active
"GUCY2D (guanylate cyclase 2D, retinal)",3,-0.00303,0.0346,0.0186,0.62,0.33,inactive

Next reagents:
gene knocked down,siRNA no.,synergy score with BYL719,synergy score with cetuximab,synergy score with trametinib,viability with DMSO (fraction of control),viability with trametinib (fraction of control),activity call
CHD4 (chromodomain helicase DNA binding protein 4),1,0.0578,-0.0417,-0.00317,0.205,0.118,inactive
CHD4 (chromodomain helicase DNA binding protein 4),2,0.0833,0.0954,0.0399,0.541,0.264,inactive
CHD4 (chromodomain helicase DNA binding protein 4),3,0.225,0.104,0.171,0.903,0.336,active
CHD4 (chromodomain helicase DNA binding protein 4),4,-0.165,-0.0758,-0.0233,0.425,0.262,inactive
"PRAG1 (PEAK1 related, kinase-activating pseudokinase 1)",1,0.3,0,0.294,1,0.268,active
"PRAG1 (PEAK1 related, kinase-activating pseudokinase 1)",2,0.63,-0.000249,0.185,0.85,0.293,active
"PRAG1 (PEAK1 related, kinase-activating pseudokinase 1)",3,-0.183,-0.0492,-0.139,0.838,0.609,inactive
"PRAG1 (PEAK1 related, kinase-activating pseudokinase 1)",4,-0.148,0.00587,-0.0578,0.965,0.599,inactive
CDK6 (cyclin dependent kinase 6),1,-0.00066,0,0.154,1,0.407,active
CDK6 (cyclin dependent kinase 6),2,-0.07,0.0596,-0.00802,0.203,0.122,inactive
CDK6 (cyclin dependent kinase 6),3,-0.116,0,0.285,1,0.276,active
CDK6 (cyclin dependent kinase 6),4,-0.145,0.377,0.378,0.938,0.149,active
MAP3K8 (mitogen-activated protein kinase kinase kinase 8),1,-0.116,0,0.00558,1,0.556,inactive
MAP3K8 (mitogen-activated protein kinase kinase kinase 8),2,-0.0362,0.0117,-0.000368,0.209,0.118,inactive
MAP3K8 (mitogen-activated protein kinase kinase kinase 8),3,-0.157,0.257,0.248,0.903,0.259,active
MAP3K8 (mitogen-activated protein kinase kinase kinase 8),4,0.187,0,0.376,1,0.186,active
SYNCRIP (synaptotagmin binding cytoplasmic RNA interacting protein),1,0.277,0.34,0.32,0.964,0.222,active
SYNCRIP (synaptotagmin binding cytoplasmic RNA interacting protein),2,-0.116,0.0349,0.225,1,0.336,active
SYNCRIP (synaptotagmin binding cytoplasmic RNA interacting protein),3,0.0359,0.153,0.259,0.724,0.148,active
SYNCRIP (synaptotagmin binding cytoplasmic RNA interacting protein),4,-0.116,0,0.306,1,0.255,active
NR2F2 (nuclear receptor subfamily 2 group F member 2),1,-0.116,0,0.192,1,0.369,active
NR2F2 (nuclear receptor subfamily 2 group F member 2),2,0.00756,0.00544,0.288,1,0.274,active
NR2F2 (nuclear receptor subfamily 2 group F member 2),3,-0.116,0,0.192,1,0.37,active
NR2F2 (nuclear receptor subfamily 2 group F member 2),4,-0.0952,0.0311,0.33,1,0.231,active
SF3B1 (splicing factor 3b subunit 1),1,-0.0436,-0.0535,-0.0414,0.196,0.151,inactive
SF3B1 (splicing factor 3b subunit 1),2,-0.023,-0.0471,-0.0188,0.152,0.104,inactive
SF3B1 (splicing factor 3b subunit 1),3,0.0457,-0.0971,-0.0413,0.508,0.327,inactive
SF3B1 (splicing factor 3b subunit 1),4,-0.0104,-0.0414,0.0145,0.245,0.123,inactive
